The values below come from paper PMC8384837.

Holding throughout (details): yeast three-hybrid, YBZ-1, SC-Leu-His + 0.5 mM 3-AT, 4 days
Experiment [1] addresses T1, PUM1 PUF domain R1-QFR R2-VFQ R7-NPG S863Q + R864F + Q867R + N899V + Y900F + S1079N + N1080P + E1083G (UniProt Q14671).
T1 sequence: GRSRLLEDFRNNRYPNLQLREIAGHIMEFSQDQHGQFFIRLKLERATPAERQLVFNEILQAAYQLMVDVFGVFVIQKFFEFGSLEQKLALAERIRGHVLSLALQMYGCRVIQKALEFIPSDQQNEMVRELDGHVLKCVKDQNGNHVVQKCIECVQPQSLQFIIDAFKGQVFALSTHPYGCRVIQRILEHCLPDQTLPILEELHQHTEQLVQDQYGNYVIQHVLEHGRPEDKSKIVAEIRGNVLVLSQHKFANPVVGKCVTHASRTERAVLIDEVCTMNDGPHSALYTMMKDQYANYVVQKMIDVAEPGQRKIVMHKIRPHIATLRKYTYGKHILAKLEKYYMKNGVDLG

The target in experiment [2] is T2, PUM1 PUF domain R2-VFQ R3-THE R4-TFR N899V + Y900F + C935T + R936H + Q939E + N971T + H972F + Q975R (UniProt Q14671).
T2 sequence: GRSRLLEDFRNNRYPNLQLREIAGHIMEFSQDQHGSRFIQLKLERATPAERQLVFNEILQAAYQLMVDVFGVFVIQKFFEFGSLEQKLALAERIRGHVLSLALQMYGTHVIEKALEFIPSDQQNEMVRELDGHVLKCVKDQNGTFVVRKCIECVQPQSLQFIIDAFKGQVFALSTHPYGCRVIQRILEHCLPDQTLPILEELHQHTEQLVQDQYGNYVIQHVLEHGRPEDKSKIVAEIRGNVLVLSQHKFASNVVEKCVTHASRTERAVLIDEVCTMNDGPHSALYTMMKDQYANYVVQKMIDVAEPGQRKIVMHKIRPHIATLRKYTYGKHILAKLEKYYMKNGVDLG

In experiment [3] the target is T3, PUM1 PUF domain R6-SWD R7-NPG N1043S + Y1044W + Q1047D + S1079N + N1080P + E1083G (Homo sapiens) (UniProt Q14671).
T3 sequence: T1 sequence with Q36S, F37R, R40Q, V72N, F73Y, N216S, Y217W, Q220D

In experiment [4] the target is T4, PUM1 PUF domain R5-PHQ R6-SWD C1007P + R1008H + N1043S + Y1044W + Q1047D (UniProt Q14671).
T4 sequence: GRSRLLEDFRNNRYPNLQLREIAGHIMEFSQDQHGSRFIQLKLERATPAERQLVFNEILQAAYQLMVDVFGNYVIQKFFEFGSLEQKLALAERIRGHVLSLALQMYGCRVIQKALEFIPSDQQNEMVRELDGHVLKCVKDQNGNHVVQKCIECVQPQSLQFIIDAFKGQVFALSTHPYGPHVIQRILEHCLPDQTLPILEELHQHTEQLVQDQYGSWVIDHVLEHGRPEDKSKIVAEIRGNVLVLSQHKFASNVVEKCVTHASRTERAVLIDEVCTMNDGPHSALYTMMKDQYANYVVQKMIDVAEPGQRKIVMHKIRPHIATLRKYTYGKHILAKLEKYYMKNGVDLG

Experiment [5] concerns the target T5, PUM1 PUF domain R3-THE R4-TFR C935T + R936H + Q939E + N971T + H972F + Q975R (UniProt Q14671).
T5 sequence: T2 sequence with V72N, F73Y

Experiment [6] concerns the target T6, PUM1 PUF domain R3-THE R4-TFR C935T + R936H + Q939E + N971T + H972F + Q975R (Homo sapiens) (UniProt Q14671).
T6 sequence: T2 sequence with V72N, F73Y

Positions count from the first letter of the chain named. This is one part of the list. For some assays here: At the low end of the ranking the order means little. For some assays here: The source does not settle which construct or isoform was used.

Regarding “GGCUAGAACUAGUGGAUCCCCCGGCGCCCGGCGGCUCGAGCCCGGGUAAGUGGAAGCAGUCUGCAUGCCGCCGGGCGCCAUGCCUGCAGGUCGACUCUAGAAAACAUG”, the figures for the binding signal (log2 enrichment (interaction score)) in experiment [1], in experiment [2] and in experiment [3] were -5.36, -5.88 and -0.86, respectively.
Take “GGCUAGAACUAGUGGAUCCCCCGGCGCCCGGCGGCUCGAGCCCGGGUAAGUUGAAUCCGUCUGCAUGCCGCCGGGCGCCAUGCCUGCAGGUCGACUCUAGAAAACAUG”: the binding signal (log2 enrichment (interaction score)) in experiment [1] is -2.76; in experiment [2] it was -4.84; in experiment [4], -7.88; in experiment [3], -1.64.
For “GGCUAGAACUAGUGGAUCCCCCGGCGCCCGGCGGCUCGAGCCCGGGUAAGUGGUACUAGUCUGCAUGCCGCCGGGCGCCAUGCCUGCAGGUCGACUCUAGAAAACAUG”, the binding signal (log2 enrichment (interaction score)) was -4.63 in experiment [1] and < -7.03 in experiment [5].
For the sequence “GGCUAGAACUAGUGGAUCCCCCGGCGCCCGGCGGCUCGAGCCCGGGUAAGGUAAGUACGUCUGCAUGCCGCCGGGCGCCAUGCCUGCAGGUCGACUCUAGAAAACAUG”, the binding signal (log2 enrichment (interaction score)) in experiment [1] is < -6.72; in experiment [2], -5.06; in experiment [3], -0.53.
Regarding “GGCUAGAACUAGUGGAUCCCCCGGCGCCCGGCGGCUCGAGCCCGGGUAAGAUUCCAUAGUCUGCAUGCCGCCGGGCGCCAUGCCUGCAGGUCGACUCUAGAAAACAUG”, the values for the binding signal (log2 enrichment (interaction score)) in experiment [1] and in experiment [5] were -6.3 and -7.71, respectively.
For “GGCUAGAACUAGUGGAUCCCCCGGCGCCCGGCGGCUCGAGCCCGGGUAAGGUUAAGUUGUCUGCAUGCCGCCGGGCGCCAUGCCUGCAGGUCGACUCUAGAAAACAUG”, the binding signal (log2 enrichment (interaction score)) in experiment [1] is < -6.02; in experiment [2], -4.84; in experiment [3], -0.93.
Take “GGCUAGAACUAGUGGAUCCCCCGGCGCCCGGCGGCUCGAGCCCGGGUAAGGUUAAAGCGUCUGCAUGCCGCCGGGCGCCAUGCCUGCAGGUCGACUCUAGAAAACAUG”: the binding signal (log2 enrichment (interaction score)) is -4.84 in experiment [1], -5.35 in experiment [2] and -1.1 in experiment [3].
On to “GGCUAGAACUAGUGGAUCCCCCGGCGCCCGGCGGCUCGAGCCCGGGUAAGUGUGCGUAGUCUGCAUGCCGCCGGGCGCCAUGCCUGCAGGUCGACUCUAGAAAACAUG”, for which the binding signal (log2 enrichment (interaction score)) in experiment [1] was -5.12; in experiment [6], -0.8; in experiment [4], < -7.02.
For “GGCUAGAACUAGUGGAUCCCCCGGCGCCCGGCGGCUCGAGCCCGGGUAAGCGGACGAAGUCUGCAUGCCGCCGGGCGCCAUGCCUGCAGGUCGACUCUAGAAAACAUG”, the binding signal (log2 enrichment (interaction score)) in experiment [1] was -4.81; in experiment [5], < -6.96.
Turning to “GGCUAGAACUAGUGGAUCCCCCGGCGCCCGGCGGCUCGAGCCCGGGUAAGUGGUCACAGUCUGCAUGCCGCCGGGCGCCAUGCCUGCAGGUCGACUCUAGAAAACAUG”, the values for the binding signal (log2 enrichment (interaction score)) in experiment [1] and in experiment [5] were -4.83 and -6.74, respectively.
Consider “GGCUAGAACUAGUGGAUCCCCCGGCGCCCGGCGGCUCGAGCCCGGGUAAGUUUGCACAGUCUGCAUGCCGCCGGGCGCCAUGCCUGCAGGUCGACUCUAGAAAACAUG”, for which the binding signal (log2 enrichment (interaction score)) in experiment [1] was < -6.27; in experiment [5] it was -7.72.
The corresponding values for “GGCUAGAACUAGUGGAUCCCCCGGCGCCCGGCGGCUCGAGCCCGGGUAAGUGGACGGAGUCUGCAUGCCGCCGGGCGCCAUGCCUGCAGGUCGACUCUAGAAAACAUG” are -4.96 and -5.34.
Regarding “GGCUAGAACUAGUGGAUCCCCCGGCGCCCGGCGGCUCGAGCCCGGGUAAGGGGAAAUGGUCUGCAUGCCGCCGGGCGCCAUGCCUGCAGGUCGACUCUAGAAAACAUG”, the binding signal (log2 enrichment (interaction score)) was -5.13 in experiment [1], -4.79 in experiment [2], < -7.18 in experiment [4] and -0.99 in experiment [3].
